The list shows a part of the results.
compound: NCC(=O)Nc1ccc(-n2nc(C(F)(F)F)cc2-c2ccc3c(ccc4ccccc43)c2)cc1; test: log2 fold change, soluble protein after heating vs DMSO (PISA); higher = thermal stabilisation; K562 lysate, 10 uM; active = over 0.2 and 3.5 SD of the protein, either way, in both replicates (recomputed)
Procedure, shortened: (§1)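 A 30 min treatment with 10 μM compound was applied to crude K562 extract at 1 mg/mL protein in PBS pH 7.4 with 1 mM MgCl2. Heating for 3 min spanned 48°C-58°C, after which aliquots were pooled, adjusted to 0.5% NP-40 at 4°C and spun at 21,000xg for 90 min. TMTpro 16plex LC-MS/MS of the supernatant, with channel sums equalised, gave values recorded as log-two fold change in thermal stability against solvent controls, from duplicates.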

The chains behind the UniProt entries cited, without tags or fusion partners. Where a name states a change or a piece, a line headed by the entry shows the natural chain unless it says otherwise.
UniProt Q9UMY1: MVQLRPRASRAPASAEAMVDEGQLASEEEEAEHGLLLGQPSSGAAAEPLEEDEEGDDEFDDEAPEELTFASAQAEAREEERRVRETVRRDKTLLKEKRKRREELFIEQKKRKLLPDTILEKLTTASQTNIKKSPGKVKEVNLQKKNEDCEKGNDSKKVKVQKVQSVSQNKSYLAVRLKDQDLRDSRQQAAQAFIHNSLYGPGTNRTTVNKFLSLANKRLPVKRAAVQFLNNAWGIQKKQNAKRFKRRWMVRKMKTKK
UniProt Q8TAT6: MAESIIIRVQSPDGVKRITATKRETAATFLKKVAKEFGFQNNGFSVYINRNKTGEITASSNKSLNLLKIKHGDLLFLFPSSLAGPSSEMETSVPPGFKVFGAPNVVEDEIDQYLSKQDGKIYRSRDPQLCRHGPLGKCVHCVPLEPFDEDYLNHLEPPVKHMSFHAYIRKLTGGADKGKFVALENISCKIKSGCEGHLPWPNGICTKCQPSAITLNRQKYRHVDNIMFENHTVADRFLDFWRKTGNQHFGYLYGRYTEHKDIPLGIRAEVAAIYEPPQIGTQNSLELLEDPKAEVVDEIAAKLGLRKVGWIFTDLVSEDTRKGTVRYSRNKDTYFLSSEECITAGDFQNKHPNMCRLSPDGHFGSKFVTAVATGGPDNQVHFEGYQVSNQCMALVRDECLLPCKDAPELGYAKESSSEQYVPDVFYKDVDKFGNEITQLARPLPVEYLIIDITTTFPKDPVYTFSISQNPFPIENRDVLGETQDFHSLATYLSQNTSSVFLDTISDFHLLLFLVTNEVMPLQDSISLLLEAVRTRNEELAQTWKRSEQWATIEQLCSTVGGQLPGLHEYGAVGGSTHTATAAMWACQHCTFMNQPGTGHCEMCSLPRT
UniProt Q9NV35: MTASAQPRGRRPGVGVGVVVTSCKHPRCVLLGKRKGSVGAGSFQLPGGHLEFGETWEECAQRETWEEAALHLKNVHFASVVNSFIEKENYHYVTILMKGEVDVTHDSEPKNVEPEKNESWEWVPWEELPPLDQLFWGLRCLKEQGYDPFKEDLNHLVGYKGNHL
UniProt Q9HAN9, whole entry, looked up: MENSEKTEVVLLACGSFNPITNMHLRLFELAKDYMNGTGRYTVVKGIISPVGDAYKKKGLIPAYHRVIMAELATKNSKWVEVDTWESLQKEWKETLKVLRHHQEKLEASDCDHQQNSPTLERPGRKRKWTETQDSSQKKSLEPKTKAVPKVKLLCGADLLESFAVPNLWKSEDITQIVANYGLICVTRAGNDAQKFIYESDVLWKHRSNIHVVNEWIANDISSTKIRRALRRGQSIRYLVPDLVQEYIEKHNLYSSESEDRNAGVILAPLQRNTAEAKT
UniProt Q9BV86: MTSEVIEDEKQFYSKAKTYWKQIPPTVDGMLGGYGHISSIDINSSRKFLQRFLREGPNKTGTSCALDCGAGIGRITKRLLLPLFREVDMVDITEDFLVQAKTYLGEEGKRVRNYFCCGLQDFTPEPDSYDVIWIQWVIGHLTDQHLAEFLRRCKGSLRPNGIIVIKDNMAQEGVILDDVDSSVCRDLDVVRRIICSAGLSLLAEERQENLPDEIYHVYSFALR
UniProt P49790, whole entry, looked up: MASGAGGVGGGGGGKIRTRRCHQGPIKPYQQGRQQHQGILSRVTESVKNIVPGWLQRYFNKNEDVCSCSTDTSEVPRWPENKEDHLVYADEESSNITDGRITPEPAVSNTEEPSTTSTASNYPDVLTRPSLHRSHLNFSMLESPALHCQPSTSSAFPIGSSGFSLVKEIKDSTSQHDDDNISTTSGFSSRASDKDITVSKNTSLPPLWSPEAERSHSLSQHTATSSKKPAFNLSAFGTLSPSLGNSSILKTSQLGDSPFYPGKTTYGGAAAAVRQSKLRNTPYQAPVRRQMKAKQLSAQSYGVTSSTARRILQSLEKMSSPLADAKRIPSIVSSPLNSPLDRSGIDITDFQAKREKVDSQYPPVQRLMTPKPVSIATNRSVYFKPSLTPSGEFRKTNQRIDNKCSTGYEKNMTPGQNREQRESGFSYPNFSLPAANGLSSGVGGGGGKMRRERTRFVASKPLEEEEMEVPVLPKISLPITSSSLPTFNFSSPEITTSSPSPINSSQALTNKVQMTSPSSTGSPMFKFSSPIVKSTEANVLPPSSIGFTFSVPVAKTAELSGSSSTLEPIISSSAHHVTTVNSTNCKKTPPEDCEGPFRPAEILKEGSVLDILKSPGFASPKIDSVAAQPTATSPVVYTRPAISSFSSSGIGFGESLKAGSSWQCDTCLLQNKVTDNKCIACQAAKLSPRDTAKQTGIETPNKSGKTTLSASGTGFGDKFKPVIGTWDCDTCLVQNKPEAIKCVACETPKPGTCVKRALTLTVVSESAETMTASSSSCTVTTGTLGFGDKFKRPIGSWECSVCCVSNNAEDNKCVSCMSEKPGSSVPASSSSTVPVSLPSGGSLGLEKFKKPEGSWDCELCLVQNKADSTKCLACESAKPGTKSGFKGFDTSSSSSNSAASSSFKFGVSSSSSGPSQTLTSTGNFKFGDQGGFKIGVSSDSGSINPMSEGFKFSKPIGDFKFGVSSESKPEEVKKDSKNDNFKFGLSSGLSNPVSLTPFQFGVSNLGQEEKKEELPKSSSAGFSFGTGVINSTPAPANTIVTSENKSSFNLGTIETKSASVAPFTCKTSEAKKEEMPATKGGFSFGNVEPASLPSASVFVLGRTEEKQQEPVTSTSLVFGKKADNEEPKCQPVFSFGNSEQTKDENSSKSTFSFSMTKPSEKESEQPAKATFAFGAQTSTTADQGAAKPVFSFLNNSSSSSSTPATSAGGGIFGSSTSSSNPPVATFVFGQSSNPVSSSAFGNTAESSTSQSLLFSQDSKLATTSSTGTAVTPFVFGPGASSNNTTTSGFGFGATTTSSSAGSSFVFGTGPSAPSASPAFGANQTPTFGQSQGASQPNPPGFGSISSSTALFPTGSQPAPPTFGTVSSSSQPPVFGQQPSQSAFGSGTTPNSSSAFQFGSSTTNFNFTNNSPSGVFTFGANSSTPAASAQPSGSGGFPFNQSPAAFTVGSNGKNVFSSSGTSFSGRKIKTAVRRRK
UniProt Q9NPE3: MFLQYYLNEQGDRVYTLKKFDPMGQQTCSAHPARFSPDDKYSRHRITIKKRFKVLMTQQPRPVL
UniProt Q96MG7: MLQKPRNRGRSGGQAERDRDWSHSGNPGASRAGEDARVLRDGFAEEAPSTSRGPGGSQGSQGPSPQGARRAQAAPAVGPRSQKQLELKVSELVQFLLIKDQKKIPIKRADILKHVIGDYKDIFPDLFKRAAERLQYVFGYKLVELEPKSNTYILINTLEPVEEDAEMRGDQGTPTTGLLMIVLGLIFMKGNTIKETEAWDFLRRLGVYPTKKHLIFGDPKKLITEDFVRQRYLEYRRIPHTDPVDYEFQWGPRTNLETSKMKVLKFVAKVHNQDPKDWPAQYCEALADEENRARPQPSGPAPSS
UniProt Q9Y6R0: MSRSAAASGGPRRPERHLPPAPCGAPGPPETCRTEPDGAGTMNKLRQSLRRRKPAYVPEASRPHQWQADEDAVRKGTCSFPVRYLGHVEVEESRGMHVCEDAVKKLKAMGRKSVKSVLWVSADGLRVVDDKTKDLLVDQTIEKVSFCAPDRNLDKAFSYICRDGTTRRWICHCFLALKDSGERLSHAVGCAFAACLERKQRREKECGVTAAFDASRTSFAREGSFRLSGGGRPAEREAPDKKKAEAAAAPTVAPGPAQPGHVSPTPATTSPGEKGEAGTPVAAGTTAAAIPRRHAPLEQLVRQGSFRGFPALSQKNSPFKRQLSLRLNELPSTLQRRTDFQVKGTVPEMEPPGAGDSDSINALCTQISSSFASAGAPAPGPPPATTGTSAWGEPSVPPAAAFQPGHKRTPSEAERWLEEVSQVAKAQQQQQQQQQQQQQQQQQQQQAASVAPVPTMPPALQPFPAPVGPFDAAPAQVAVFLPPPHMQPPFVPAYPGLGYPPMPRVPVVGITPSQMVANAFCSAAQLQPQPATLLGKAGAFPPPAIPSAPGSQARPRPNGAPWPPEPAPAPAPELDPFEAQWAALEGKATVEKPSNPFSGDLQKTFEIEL
UniProt P48645: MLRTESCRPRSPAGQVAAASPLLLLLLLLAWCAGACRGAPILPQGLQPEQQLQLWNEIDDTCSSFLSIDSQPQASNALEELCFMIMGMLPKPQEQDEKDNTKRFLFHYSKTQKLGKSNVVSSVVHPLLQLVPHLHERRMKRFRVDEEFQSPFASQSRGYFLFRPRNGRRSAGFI
UniProt O95989: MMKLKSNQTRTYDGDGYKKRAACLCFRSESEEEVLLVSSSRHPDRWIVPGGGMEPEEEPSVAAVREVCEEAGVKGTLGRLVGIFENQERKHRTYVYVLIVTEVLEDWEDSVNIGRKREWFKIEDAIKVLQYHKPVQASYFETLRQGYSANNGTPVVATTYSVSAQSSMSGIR
UniProt Q9Y314: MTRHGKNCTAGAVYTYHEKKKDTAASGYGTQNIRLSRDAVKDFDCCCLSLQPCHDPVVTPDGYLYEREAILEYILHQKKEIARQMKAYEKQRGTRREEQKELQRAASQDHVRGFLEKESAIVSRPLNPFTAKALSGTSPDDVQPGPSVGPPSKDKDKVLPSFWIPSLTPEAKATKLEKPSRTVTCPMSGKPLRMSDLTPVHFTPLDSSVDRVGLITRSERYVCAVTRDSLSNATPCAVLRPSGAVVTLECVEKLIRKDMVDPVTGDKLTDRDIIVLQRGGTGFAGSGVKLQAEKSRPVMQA
UniProt P57740: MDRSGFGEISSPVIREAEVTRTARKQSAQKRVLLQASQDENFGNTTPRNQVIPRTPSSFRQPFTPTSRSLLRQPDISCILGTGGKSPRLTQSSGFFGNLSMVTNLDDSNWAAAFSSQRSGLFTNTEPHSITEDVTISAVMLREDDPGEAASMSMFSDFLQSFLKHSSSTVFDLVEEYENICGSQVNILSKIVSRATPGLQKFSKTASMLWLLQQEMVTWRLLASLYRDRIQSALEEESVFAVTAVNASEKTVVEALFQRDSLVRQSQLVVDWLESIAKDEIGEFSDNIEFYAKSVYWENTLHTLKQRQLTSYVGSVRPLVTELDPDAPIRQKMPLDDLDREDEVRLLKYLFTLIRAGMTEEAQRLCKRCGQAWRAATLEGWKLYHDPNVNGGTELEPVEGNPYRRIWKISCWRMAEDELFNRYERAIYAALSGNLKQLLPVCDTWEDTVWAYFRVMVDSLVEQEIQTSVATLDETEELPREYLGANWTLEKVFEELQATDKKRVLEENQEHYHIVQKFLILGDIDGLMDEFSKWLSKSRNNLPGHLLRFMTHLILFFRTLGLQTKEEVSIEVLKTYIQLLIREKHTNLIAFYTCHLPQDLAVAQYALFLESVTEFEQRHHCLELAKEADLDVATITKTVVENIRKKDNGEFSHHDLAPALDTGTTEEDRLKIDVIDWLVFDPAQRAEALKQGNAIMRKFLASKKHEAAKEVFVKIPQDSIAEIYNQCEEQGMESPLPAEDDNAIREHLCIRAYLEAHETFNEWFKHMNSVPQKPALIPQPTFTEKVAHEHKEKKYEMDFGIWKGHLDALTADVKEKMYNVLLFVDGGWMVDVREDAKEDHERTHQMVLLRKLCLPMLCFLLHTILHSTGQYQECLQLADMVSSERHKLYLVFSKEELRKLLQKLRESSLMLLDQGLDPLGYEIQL
UniProt A8MXV4: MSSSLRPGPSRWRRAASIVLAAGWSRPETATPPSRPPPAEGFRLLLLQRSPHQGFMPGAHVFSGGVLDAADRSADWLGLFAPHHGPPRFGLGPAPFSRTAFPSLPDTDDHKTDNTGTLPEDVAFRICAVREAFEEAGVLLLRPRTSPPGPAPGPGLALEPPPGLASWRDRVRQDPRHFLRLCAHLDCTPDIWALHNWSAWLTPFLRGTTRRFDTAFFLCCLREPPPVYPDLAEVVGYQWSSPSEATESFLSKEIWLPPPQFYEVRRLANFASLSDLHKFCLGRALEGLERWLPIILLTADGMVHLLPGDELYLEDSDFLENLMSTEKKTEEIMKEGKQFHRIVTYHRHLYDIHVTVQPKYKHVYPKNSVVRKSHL
UniProt Q9Y5B8, whole entry, looked up: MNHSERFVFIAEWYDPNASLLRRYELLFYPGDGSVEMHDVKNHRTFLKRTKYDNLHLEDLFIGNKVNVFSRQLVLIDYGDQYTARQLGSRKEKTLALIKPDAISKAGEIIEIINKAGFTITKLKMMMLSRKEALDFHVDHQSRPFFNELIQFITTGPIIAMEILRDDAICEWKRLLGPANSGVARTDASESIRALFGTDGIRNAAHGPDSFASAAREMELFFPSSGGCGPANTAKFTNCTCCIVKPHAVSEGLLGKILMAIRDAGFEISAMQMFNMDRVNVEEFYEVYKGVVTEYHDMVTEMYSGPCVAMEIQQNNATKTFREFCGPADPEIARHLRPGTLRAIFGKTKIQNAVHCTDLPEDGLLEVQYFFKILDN
UniProt Q96MF7: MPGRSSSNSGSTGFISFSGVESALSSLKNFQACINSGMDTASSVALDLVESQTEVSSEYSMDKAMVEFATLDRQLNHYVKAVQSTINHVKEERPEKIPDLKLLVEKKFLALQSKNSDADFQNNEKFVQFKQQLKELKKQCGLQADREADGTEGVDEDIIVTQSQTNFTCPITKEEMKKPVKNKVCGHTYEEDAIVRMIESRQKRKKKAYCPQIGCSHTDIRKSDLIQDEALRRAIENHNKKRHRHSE

Row | Target | log2 fold change
1 | NOL7 (UniProt Q9UMY1) | inactive: 0.029
2 | NPLOC4 isoform 2 (UniProt Q8TAT6) | inactive: 0
3 | NUDT15 (UniProt Q9NV35) | inactive: 0.045
4 | NMNAT1 (UniProt Q9HAN9) | inactive: -0.055
5 | NTMT1 (UniProt Q9BV86) | inactive: 0.008
6 | NQO1 (UniProt P15559) | inactive: 0.008
7 | NUCB2 (UniProt P80303) | inactive: 0
8 | NUP153 (UniProt P49790) | inactive: 0.017
9 | NUDT16 (UniProt Q96DE0) | inactive: -0.028
10 | NOP10 (UniProt Q9NPE3) | inactive: -0.047
11 | NOA1 (UniProt Q8NC60) | inactive: 0.065
12 | NPC2 (UniProt P61916) | inactive: -0.031
13 | NSMCE3 (UniProt Q96MG7) | inactive: 0.005
14 | NUMBL (UniProt Q9Y6R0) | inactive: 0.04
15 | NTHL1 (UniProt P78549) | inactive: 0.082
16 | NUF2 (UniProt Q9BZD4) | inactive: 0.005
17 | NOP9 (UniProt Q86U38) | inactive: 0.039
18 | NMU (UniProt P48645) | inactive: 0.018
19 | NRBP2 (UniProt Q9NSY0) | inactive: 0.122
20 | NME1 isoform 2 (UniProt P15531) | inactive: 0

Row | Target | log2 fold change
21 | NOC4L (UniProt Q9BVI4) | inactive: 0.039
22 | NUDT3 (UniProt O95989) | inactive: -0.015
23 | NOP53 (UniProt Q9NZM5) | inactive: -0.028
24 | NUP133 (UniProt Q8WUM0) | inactive: 0.045
25 | NUMB (UniProt P49757) | inactive: 0
26 | NOSIP (UniProt Q9Y314) | inactive: -0.015
27 | NMRAL1 (UniProt Q9HBL8) | inactive: -0.023
28 | NT5C3A (UniProt Q9H0P0) | inactive: -0.03
29 | NUP107 (UniProt P57740) | inactive: 0.034
30 | NUDT22 (UniProt Q9BRQ3) | inactive: 0.011
31 | NUDT19 (UniProt A8MXV4) | inactive: 0.035
32 | NPTN (UniProt Q9Y639) | inactive: 0.067
33 | NME7 (UniProt Q9Y5B8) | inactive: 0.002
34 | NSMCE2 (UniProt Q96MF7) | inactive: -0.052
35 | NSMAF (UniProt Q92636) | inactive: 0.019
36 | NOL9 (UniProt Q5SY16) | inactive: -0.033
37 | NUDT5 (UniProt Q9UKK9) | inactive: -0.018
38 | NT5DC2 isoform 2 (UniProt Q9H857) | inactive: 0.013
39 | NOC2L (UniProt Q9Y3T9) | inactive: -0.055

compound: O=C(CCCCCCC(=O)Nc1ccccc1)NO [vorinostat]; test: as above
Procedure, shortened: as §1

Row | Target | log2 fold change
40 | NOL7 (UniProt Q9UMY1) | inactive: 0.091
41 | NPLOC4 isoform 2 (UniProt Q8TAT6) | inactive: 0.028
42 | NUDT15 (UniProt Q9NV35) | inactive: 0.168
43 | NMNAT1 (UniProt Q9HAN9) | inactive: 0.089
44 | NTMT1 (UniProt Q9BV86) | active: -0.366
45 | NQO1 (UniProt P15559) | inactive: -0.132
46 | NUCB2 (UniProt P80303) | inactive: 0.133
47 | NUP153 (UniProt P49790) | inactive: -0.04
48 | NUDT16 (UniProt Q96DE0) | inactive: 0.123
49 | NOP10 (UniProt Q9NPE3) | inactive: 0.14
50 | NOA1 (UniProt Q8NC60) | active: -0.411
51 | NPC2 (UniProt P61916) | inactive: 0.119
52 | NSMCE3 (UniProt Q96MG7) | inactive: -0.072
53 | NUMBL (UniProt Q9Y6R0) | inactive: -0.237
54 | NTHL1 (UniProt P78549) | inactive: 0.042
55 | NUF2 (UniProt Q9BZD4) | active: -0.242
56 | NOP9 (UniProt Q86U38) | inactive: 0
57 | NMU (UniProt P48645) | inactive: 0.086
58 | NRBP2 (UniProt Q9NSY0) | inactive: 0.034
59 | NME1 isoform 2 (UniProt P15531) | inactive: 0.127

Row | Target | log2 fold change
60 | NOC4L (UniProt Q9BVI4) | inactive: -0.059
61 | NUDT3 (UniProt O95989) | inactive: 0.061
62 | NOP53 (UniProt Q9NZM5) | inactive: 0.156
63 | NUP133 (UniProt Q8WUM0) | inactive: -0.195
64 | NUMB (UniProt P49757) | active: -0.315
65 | NOSIP (UniProt Q9Y314) | active: -0.809
66 | NMRAL1 (UniProt Q9HBL8) | inactive: -0.009
67 | NT5C3A (UniProt Q9H0P0) | inactive: -0.054
68 | NUP107 (UniProt P57740) | inactive: -0.257
69 | NUDT22 (UniProt Q9BRQ3) | inactive: -0.414
70 | NUDT19 (UniProt A8MXV4) | inactive: 0.119
71 | NPTN (UniProt Q9Y639) | inactive: 0.078
72 | NME7 (UniProt Q9Y5B8) | inactive: -0.136
73 | NSMCE2 (UniProt Q96MF7) | inactive: -0.175
74 | NSMAF (UniProt Q92636) | inactive: 0.054
75 | NOL9 (UniProt Q5SY16) | inactive: -0.019
76 | NUDT5 (UniProt Q9UKK9) | inactive: 0.1
77 | NT5DC2 isoform 2 (UniProt Q9H857) | active: -0.272
78 | NOC2L (UniProt Q9Y3T9) | inactive: -0.126

Source: the supplement of paper PMC10849652
